This is an account of results in publication PMC5504030.

In experiment [1] the target is T1, melanoma cell adhesion molecule (MCAM) (mouse (endogenous in bEnd.3)) (UniProt Q8R2Y2).
T1 sequence: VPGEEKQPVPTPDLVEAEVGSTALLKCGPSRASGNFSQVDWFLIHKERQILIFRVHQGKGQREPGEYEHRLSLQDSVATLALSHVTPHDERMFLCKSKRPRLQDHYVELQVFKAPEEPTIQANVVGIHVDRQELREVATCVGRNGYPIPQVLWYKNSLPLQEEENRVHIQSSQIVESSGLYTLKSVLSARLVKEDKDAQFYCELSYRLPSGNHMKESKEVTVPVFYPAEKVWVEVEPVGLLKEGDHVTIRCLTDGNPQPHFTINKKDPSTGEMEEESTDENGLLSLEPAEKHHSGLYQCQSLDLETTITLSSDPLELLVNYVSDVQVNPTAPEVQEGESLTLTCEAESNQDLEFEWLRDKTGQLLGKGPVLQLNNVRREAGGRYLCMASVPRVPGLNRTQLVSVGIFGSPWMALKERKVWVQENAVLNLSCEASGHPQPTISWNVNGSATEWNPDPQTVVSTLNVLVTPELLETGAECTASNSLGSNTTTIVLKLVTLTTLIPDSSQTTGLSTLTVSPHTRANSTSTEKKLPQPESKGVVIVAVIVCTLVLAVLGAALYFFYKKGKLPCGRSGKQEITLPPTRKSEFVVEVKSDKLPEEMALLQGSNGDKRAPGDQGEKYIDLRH
Briefly: co-IP; bEnd cells transfected with full-length MTP carrying 6His and c-Myc tags (MTP-expres End); RIPA lysate; IP with MCAM antibody, Western blot with antibody to p38, GSK3β or MCAM. For orientation: In western blotting, separated proteins are transferred to a membrane and probed.

Experiment [2] addresses T1, melanoma cell adhesion molecule (MCAM) (mouse (endogenous in bEnd.3)). Briefly: co-IP; wild-type bEnd cells (Wt-End, no MTP); RIPA lysate; IP with MCAM antibody, Western blot with antibody to p38, GSK3β or MCAM.

Results are given in words; binding and its absence hold for the method and conditions named. In cells and extracts the contact can be indirect. A result given as binding can be weak or reduced; the word gives no strength.

For the substance p38MAPK (mouse (endogenous in bEnd.3)), the binding entry in experiment [1] and in experiment [2] was “binds” in each case.
